# Test results from the supplement of paper PMC8728848.
# Some of the results follow.
# B1: RobpsCRA (Robinia pseudoacacia) (protein)
# chain: IKGGYWYSGSGLAVSDINPSHFTHLFCAFADLDPNTNKLTISSSNAAAFSTFTQTVRAKNPSVKTLLSIGGGGGRALAAVFANMASQASRRKSFIDSSIQLARRNNFHGLDLDWEYPSSDIDKTNFASLIREWRAAVATESSTSGTPALLLSAAVGGSDQITPLKYYPGEAIANNLDWVNVMTYDLYTSDSYPTLTQPPAPLFYPRGIFSADEGITKWIQSGVPESKLALGLPFYGFKWRLSDPNNHGLFAPATQGLGAVKYKDIVNTGGQVEFDSTYVTNYCFKGTDWYGYDDTQSISAKVAYAKQRGLFGYFAWHIEQDSNWALS
# Experiments:
# Experiment in all cases: glycan array binding signal (z-score within array); higher = stronger binding
# Details in all cases: glycan notation: IUPAC condensed, linker removed
# Fuc(a1-2)Gal = molecular target: Fuc(a1-2)Gal
# How it was run: (§1)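 The binding signal is a Z-score computed within each array and averaged over linkers. Arrays of the same protein sequence at different concentrations or buffers were also averaged together. Data originate from 3228 arrays in the Consortium for Functional Glycomics database, kept only where the protein sequence was available.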
# Fuc(a1-2)Gal(b1-3)GalNAc = molecular target: Fuc(a1-2)Gal(b1-3)GalNAc
# How it was run: as §1
# [1] = molecular target: Fuc(a1-2)Gal(b1-3)GalNAc(a1-3)[Fuc(a1-2)]Gal(b1-4)Glc
# How it was run: as §1
# [2] = molecular target: Fuc(a1-2)Gal(b1-3)GalNAc(a1-3)[Fuc(a1-2)]Gal(b1-4)GlcNAc
# How it was run: as §1
# [3] = molecular target: Fuc(a1-2)Gal(b1-3)GalNAc(b1-3)Gal
# How it was run: as §1
# [4] = molecular target: Fuc(a1-2)Gal(b1-3)GalNAc(b1-3)Gal(a1-4)Gal(b1-4)Glc
# How it was run: as §1
# [5] = molecular target: Fuc(a1-2)Gal(b1-3)GalNAc(b1-4)[Neu5Ac(a2-3)]Gal(b1-4)Glc
# How it was run: as §1
# Fuc(a1-2)Gal(b1-3)GlcNAc = molecular target: Fuc(a1-2)Gal(b1-3)GlcNAc
# How it was run: as §1
# [6] = molecular target: Fuc(a1-2)Gal(b1-3)GlcNAc(b1-2)Man(a1-3)[Fuc(a1-2)Gal(b1-3)GlcNAc(b1-2)Man(a1-6)]Man(b1-4)GlcNAc(b1-4)GlcNAc
# How it was run: as §1
# [7] = molecular target: Fuc(a1-2)Gal(b1-3)GlcNAc(b1-2)Man(a1-3)[Fuc(a1-2)Gal(b1-3)GlcNAc(b1-2)Man(a1-6)]Man(b1-4)GlcNAc(b1-4)[Fuc(a1-6)]GlcNAc
# How it was run: as §1
# [8] = molecular target: Fuc(a1-2)Gal(b1-3)GlcNAc(b1-3)Gal(b1-4)Glc
# How it was run: as §1
# [9] = molecular target: Fuc(a1-2)Gal(b1-3)GlcNAc(b1-3)GalNAc
# How it was run: as §1
# [10] = molecular target: Fuc(a1-2)Gal(b1-3)GlcNAc(b1-3)[Fuc(a1-2)Gal(b1-3)GlcNAc(b1-6)]GalNAc
# How it was run: as §1
# [11] = molecular target: Fuc(a1-2)Gal(b1-3)GlcNAc(b1-3)[Gal(b1-4)GlcNAc(b1-6)]Gal(b1-4)Glc
# How it was run: as §1
# [12] = molecular target: Fuc(a1-2)Gal(b1-3)GlcNAc(b1-3)[Neu5Ac(a2-6)Gal(b1-4)GlcNAc(b1-6)]Gal(b1-4)Glc
# How it was run: as §1
# [13] = molecular target: Fuc(a1-2)Gal(b1-3)GlcNAc6S
# How it was run: as §1
# [14] = molecular target: Fuc(a1-2)Gal(b1-3)[Fuc(a1-4)]GlcNAc
# How it was run: as §1
# [15] = molecular target: Fuc(a1-2)Gal(b1-3)[Fuc(a1-4)]GlcNAc(b1-2)Man(a1-3)[Fuc(a1-2)Gal(b1-3)[Fuc(a1-4)]GlcNAc(b1-2)Man(a1-3)]Man(b1-4)GlcNAc(b1-4)GlcNAc
# How it was run: as §1
# [16] = molecular target: Fuc(a1-2)Gal(b1-3)[Fuc(a1-4)]GlcNAc(b1-2)Man(a1-3)[Fuc(a1-2)Gal(b1-3)[Fuc(a1-4)]GlcNAc(b1-2)Man(a1-6)]Man(b1-4)GlcNAc(b1-4)[Fuc(a1-6)]GlcNAc(b1-4)[Fuc(a1-6)]GlcNAc
# How it was run: as §1
# [17] = molecular target: Fuc(a1-2)Gal(b1-3)[Fuc(a1-4)]GlcNAc(b1-3)[Fuc(a1-3)[Gal(b1-4)]GlcNAc(b1-6)]Gal(b1-4)Glc
# How it was run: as §1
# [18] = molecular target: Fuc(a1-2)Gal(b1-3)[Fuc(a1-4)]GlcNAc(b1-3)[Gal(b1-4)GlcNAc(b1-6)]Gal(b1-4)Glc
# How it was run: as §1
# Fuc(a1-2)Gal(b1-4)Glc = molecular target: Fuc(a1-2)Gal(b1-4)Glc
# How it was run: as §1
# Fuc(a1-2)Gal(b1-4)Glc6S = molecular target: Fuc(a1-2)Gal(b1-4)Glc6S
# How it was run: as §1
# Fuc(a1-2)Gal(b1-4)GlcNAc = molecular target: Fuc(a1-2)Gal(b1-4)GlcNAc
# How it was run: as §1
# [19] = molecular target: Fuc(a1-2)Gal(b1-4)GlcNAc(b1-2)Man
# How it was run: as §1
# [20] = molecular target: Fuc(a1-2)Gal(b1-4)GlcNAc(b1-2)Man(a1-3)[Fuc(a1-2)Gal(b1-4)GlcNAc(b1-2)Man(a1-6)]Man(b1-4)GlcNAc(b1-4)GlcNAc
# How it was run: as §1
# [21] = molecular target: Fuc(a1-2)Gal(b1-4)GlcNAc(b1-2)Man(a1-3)[Fuc(a1-2)Gal(b1-4)GlcNAc(b1-2)Man(a1-6)]Man(b1-4)GlcNAc(b1-4)[Fuc(a1-6)]GlcNAc
# How it was run: as §1
# [22] = molecular target: Fuc(a1-2)Gal(b1-4)GlcNAc(b1-2)[Fuc(a1-2)Gal(b1-4)GlcNAc(b1-4)]Man(a1-3)[Fuc(a1-2)Gal(b1-4)GlcNAc(b1-2)Man(a1-6)]Man(b1-4)GlcNAc(b1-4)GlcNAc
# How it was run: as §1
# [23] = molecular target: Fuc(a1-2)Gal(b1-4)GlcNAc(b1-3)Gal(b1-4)GlcNAc
# How it was run: as §1
# [24] = molecular target: Fuc(a1-2)Gal(b1-4)GlcNAc(b1-3)Gal(b1-4)GlcNAc(b1-2)Man(a1-3)[Fuc(a1-2)Gal(b1-4)GlcNAc(b1-3)Gal(b1-4)GlcNAc(b1-2)Man(a1-6)]Man(b1-4)GlcNAc(b1-4)GlcNAc
# How it was run: as §1
binder,measurement,setting,value
B1,glycan array binding signal (z-score),Fuc(a1-2)Gal,0.207
same,glycan array binding signal (z-score),Fuc(a1-2)Gal(b1-3)GalNAc,0.649
same,glycan array binding signal (z-score),[1],-0.338
same,glycan array binding signal (z-score),[2],-0.038
same,glycan array binding signal (z-score),[3],-0.261
same,glycan array binding signal (z-score),[4],-0.871
same,glycan array binding signal (z-score),[5],0.66
same,glycan array binding signal (z-score),Fuc(a1-2)Gal(b1-3)GlcNAc,0.099
same,glycan array binding signal (z-score),[6],-0.384
same,glycan array binding signal (z-score),[7],0.793
same,glycan array binding signal (z-score),[8],0.505
same,glycan array binding signal (z-score),[9],-0.523
same,glycan array binding signal (z-score),[10],-0.536
same,glycan array binding signal (z-score),[11],-0.335
same,glycan array binding signal (z-score),[12],-0.554
same,glycan array binding signal (z-score),[13],-0.782
same,glycan array binding signal (z-score),[14],0.547
same,glycan array binding signal (z-score),[15],-0.518
same,glycan array binding signal (z-score),[16],-0.179
same,glycan array binding signal (z-score),[17],-0.147
same,glycan array binding signal (z-score),[18],0.032
same,glycan array binding signal (z-score),Fuc(a1-2)Gal(b1-4)Glc,0.123
same,glycan array binding signal (z-score),Fuc(a1-2)Gal(b1-4)Glc6S,0.304
same,glycan array binding signal (z-score),Fuc(a1-2)Gal(b1-4)GlcNAc,-0.159
same,glycan array binding signal (z-score),[19],-0.338
same,glycan array binding signal (z-score),[20],-0.573
same,glycan array binding signal (z-score),[21],1.02
same,glycan array binding signal (z-score),[22],-0.123
same,glycan array binding signal (z-score),[23],-0.435
same,glycan array binding signal (z-score),[24],0.088

# For convenience, part of the list above:
binder,measurement,setting,value
B1,glycan array binding signal (z-score),[20],-0.573
same,glycan array binding signal (z-score),[21],1.02
